No constants are given. Whether binding was seen depends on the method and setting.
Experiments:
[1] = target: IL-31RA from rabbit (rabbit); experiment: SPR (Biacore T100)
[2] = target: IL-31RA from rat (rat); experiment: SPR (Biacore T100)

binding [1]: no binding | binding [2]: no binding
B1: anti-human IL-31RA antibody CIM331 (nemolizumab) (antibody, V domains shown)
VH: QVQLVQSGAEVKKPGASVKVSCKASGYTFTGYIMNWVRQAPGQGLEWMGLINPYNGGTDYNPQFQDRVTITADKSTSTAYMELSSLRSEDTAVYYCARDGYDDGPYTLETWGQGTLVTVSS
VL: DIQMTQSPSSLSASVGDRVTITCQASEDIYSFVAWYQQKPGKAPKLLIYNAQTEAQGVPSRFSGSGSGTDFTLTISSLQPEDFATYYCQHHYDSPLTFGGGTKVEIKR

— patent publication US20230391878A1
